# Experimental data: PubChem BioAssay AID1347076 (National Center for Advancing Translational Sciences (NCATS), 2019)
# Screen size: about 400,000 compounds; about 13,000 (3.2%) were called active. The inconclusive results got no clear call from the source; some entries with a clear call stand among them for comparison. The call rests on the fitted dose curve; in most records, active means well fitted cell-killing curve with a large enough effect; inconclusive means small, poorly fitted or top-dose-only effect, or effect the other way; inactive means flat fitted curve, though single readings scatter. Potencies of inconclusive entries are doubtful fits and often do not repeat.
# Experiment: qHTS assay for MDR1-selective chemotherapeutics: Primary screen using the drug-selected MDR subline cells KB-V1; further: nearly all actives have a fitted effect of over 60% in size
# Conditions: KB-V1 MDR cells viability, CellTiter-Glo, 72 h; activity change, negative = cytotoxicity: at 46.1 µM (top of the series)
# Outline: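 qHTS viability screen in drug-selected KB-V1 MDR cells: 72 h compound treatment at 37 degrees C, ATP luminescence end point.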
# On the % scale 0 is the no-effect control and ±100 the full control effect; potency means the concentration at half of the fitted maximal effect.
SMILES,"activity change, negative = cytotoxicity",Potency
O=C(O)CCCCN1C(=O)/C(=C\c2ccc(OCc3ccccc3)c(OCc3ccccc3)c2)SC1=S,inactive: -12.6%,–
OC(c1ccccc1)(c1ccccc1)C1CCN(CCCOc2ccccc2Cl)CC1,–,"inconclusive: 18.4 µM [cytotoxic, partial curve, poor fit]"
CCN1CCN(c2nc3ccccc3nc2C(C#N)C(=O)OC2CCCCC2)CC1 (stereo not drawn),–,"inconclusive: 25.9 µM [cytotoxic, single point]"
Cc1cccc(N(Cc2cc3ccccc3[nH]c2=O)C(=O)c2cccc(Cl)c2)c1,inactive: -19.9%,–
Cc1cccc(CCNC(=O)c2ccc(CSCc3cccc(Cl)c3)o2)c1,inactive: 5.95%,–
CC1CCCCN1S(=O)(=O)CCNC(=O)c1ccccc1 (stereo not drawn),inconclusive: -15.7%,–
O=C(CN1CCN(Cc2ccc(Cl)cc2)CC1)N/N=C/c1cccc(F)c1,–,"inconclusive: 13 µM [cytotoxic, partial curve]"
Cc1nn(Cc2ccccc2)c(Cl)c1/C=N/NC(=O)CNc1cccc(C(F)(F)F)c1,–,active: 9.2 µM
CC(=O)Nc1ccc(NC(=O)CCCN2C(=O)c3ccccc3C2=O)cc1,inactive: 2.86%,–
CCc1nc2ccc(C(=O)Nc3cc(-c4ccccc4)ccc3OC)cn2c1N(C)Cc1nccs1,inactive: -15.6%,–
CCn1c2ccc(Cl)cc2c2nc3ccccc3nc21,–,"inconclusive: 18.4 µM [cytotoxic, single point]"
COc1cc(-c2cnc3c(NC=O)cc(-c4ccccc4Cl)cn23)cc(OC)c1OC,–,active: 3.26 µM
CC(C)N(Cc1ccccc1)C(=O)CN1C(=O)NC2(CCCc3ccccc32)C1=O (stereo not drawn),–,"inconclusive: 32.6 µM [cytotoxic, single point]"
COc1ccc(NS(=O)(=O)c2ccc(N3CCCC3)c(NC(=S)Nc3cccc(C)c3C)c2)cc1,–,"inconclusive: 20.6 µM [cytotoxic, single point]"
CCOC(=O)C1(Cc2cccc(Cl)c2)CCCN(C(=O)C2CC2)C1 (stereo not drawn),–,"inconclusive: 13 µM [cytotoxic, partial curve]"
C/C=C/c1ccc(OCC(O)CNCCc2ccc(OC)cc2)c(OC)c1 (stereo not drawn),inactive: -9.48%,–
CCn1ccc2c(OCC(=O)NCc3ccccc3)cccc2c1=O,inactive: 1.03%,–
CSc1ccc(C(=O)C2CCCN(C(=O)c3cc(C)n(C)n3)C2)cc1 (stereo not drawn),inactive: -29.2%,–
Cc1[nH]nc(N)c1-c1ccc(Cl)cc1,inactive: 0.0982%,–
C/C(=C1/SC(N2CCCC2)=NC1=O)c1ccc(Br)cc1,–,"inconclusive: 13 µM [cytotoxic, partial curve, poor fit]"
Cc1ccc(-c2cn(-c3ccccc3)c(SCC(=O)NC3CCS(=O)(=O)C3)n2)cc1C (stereo not drawn),–,active: 3.66 µM
COc1cc(OC)c2c(-c3cccc(-c4sccc4C(C)=O)c3)cc(=O)oc2c1,–,active: 2.59 µM
COc1ccc(CCNC(=S)NC(=O)c2ccccc2)cc1OC,inactive: -13.7%,–
CCOC(=O)c1cnc(-c2ccccc2O)nc1Cl,inactive: -2.14%,–
CCc1ccc2c(c1)/C(=C/C(=O)c1cccs1)C(=O)N2,–,"inconclusive: 20.6 µM [cytotoxic, single point]"

SMILES,"activity change, negative = cytotoxicity",Potency
Cc1ccccc1CSCc1nc2ccccc2[nH]1,–,"inconclusive: 16.4 µM [cytotoxic, single point]"
O=C(O)COc1ccccc1C1C2C(=O)N(c3ccc(F)cc3)C(=O)C2ON1c1ccccc1 (stereo not drawn),–,"inconclusive: 8.2 µM [rising, partial curve, poor fit]"
CC1(C)Oc2ccc3ccc(=O)oc3c2C[C@H]1O,inactive: 10.8%,–
O=C(Nc1ccccc1)C1=C[C@@H](c2csc3ccccc23)C[C@@H](OCc2ccc(CO)cc2)O1,–,"inconclusive: 29.1 µM [cytotoxic, single point]"
O=C(CCN1CCN(C/C=C/c2ccccc2)CC1)Nc1ccccc1Cl,–,"inconclusive: 29.1 µM [cytotoxic, single point]"
O=C1C(=Cc2ccc(Cl)cc2)Cc2ccccc21,inactive: -14.2%,–
Nn1cnnc1SCC(=O)N(C1CCCCC1)C1CCCCC1,inactive: 7.57%,–
Cc1ccc2sc(NC(=O)C3CC3)nc2c1C,inactive: 17.2%,–
CC(=O)c1c(Nc2ccc3c(c2)OCCO3)oc(C)cc1=O,–,"inconclusive: 25.9 µM [rising, partial curve, poor fit]"
CCc1nnc(NC(=O)COc2ccc([N+](=O)[O-])cc2)s1,inactive: 18.6%,–
CCN1C(=O)[C@H]2[C@@H](c3ccc(-c4cccc(Cl)c4)c(OC)c3)N3CCCC[C@@]3(C(=O)OC)[C@H]2C1=O,–,active: 20.6 µM
O=[N+]([O-])c1ccc(-c2nc(Nc3cccc(O)c3)c3ccccc3n2)cc1,–,"inconclusive: 20.6 µM [cytotoxic, single point]"
CS(=O)(=O)c1ccc(Cl)c(NC(=O)CSc2nc3ccccc3c(=O)n2Cc2ccco2)c1,–,"inconclusive: 2.06 µM [cytotoxic, full curve]"
Cc1occc1C(=O)NNC(=O)COc1ccc(Br)cc1Br,–,active: 14.6 µM
CCOC(=O)C1CCN(C(=O)CSc2ccccc2Cl)CC1,–,"inconclusive: 32.6 µM [rising, single point]"
CNC(C)C#Cc1c(-c2cc(OC)c(OC)c(OC)c2)noc1C (stereo not drawn),–,"inconclusive: 13 µM [cytotoxic, partial curve]"
COc1ccc(-c2ccc3c(c2)S(=O)(=O)c2cccc(C(=O)N4CCN(c5c(Cl)cncc5Cl)CC4)c2C3=O)cc1OC,–,"inconclusive: 0.0052 µM [rising, full curve, poor fit]"
CC(=O)Nc1ccc(S(=O)(=O)N2CCC(C(=O)O)CC2)cc1,–,"inconclusive: 8.2 µM [rising, partial curve, poor fit]"
Cc1ccc(Cl)cc1N1CCN(Cc2nnnn2C2CCCCC2)CC1,–,"inconclusive: 16.4 µM [cytotoxic, single point]"
COc1ccc(-n2nc(C(=O)N(C)c3cc(Cl)ccc3OC)c3c4ccccc4n(C)c3c2=O)cc1,inactive: 5.93%,–
CCC(=O)N1N=C(c2ccccc2)CC1c1ccc([N+](=O)[O-])cc1 (stereo not drawn),–,active: 14.6 µM
CCCN1C(=O)c2cc(C(=O)Nc3ccccc3CC)ccc2C1O (stereo not drawn),–,"inconclusive: 29.1 µM [rising, single point]"
COc1ccc(Cn2c(CO)cnc2SCc2ccc(F)cc2)cc1,–,"inconclusive: 16.4 µM [cytotoxic, single point]"
Cc1cccc(-c2noc(CN(C(=O)CCc3ccccc3)C(C)C)n2)c1,–,"inconclusive: 20.6 µM [cytotoxic, partial curve]"
C=CCOC(=O)C(C#N)c1nc2ccccc2nc1N1CCN(Cc2ccc3c(c2)OCO3)CC1 (stereo not drawn),–,active: 23.1 µM

SMILES,"activity change, negative = cytotoxicity",Potency
COCCNC(=O)C1(C)CCN(C(=O)c2cc(C(C)(C)C)nn2C)C1 (stereo not drawn),inactive: 1.62%,–
N#CC1=C2SCN(C3CCCCC3)CN2C(=O)CC1c1c(F)cccc1Cl (stereo not drawn),–,"inconclusive: 29.1 µM [rising, single point]"
COc1ccc(S(=O)(=O)c2nnn(-c3ccccc3F)c2C)cc1,inactive: -11.5%,–
Cc1cc(NC(=O)c2ccc(Cl)cc2)no1,inactive: 10.5%,–
Cc1ccc(NC(=O)CC2Nc3cc(C)c(C)cc3NC2=O)c(C)c1 (stereo not drawn),–,"inconclusive: 23.1 µM [rising, partial curve]"
COc1ccc(S(=O)(=O)N2CCSC2c2ccccc2)cc1 (stereo not drawn),–,active: 23.1 µM
COc1ccc(-n2nc(C(=O)NCC(=O)N3CCN(Cc4ccccc4)CC3)c3ccccc3c2=O)cc1,–,"inconclusive: 23.1 µM [cytotoxic, single point]"
O=C(Nc1ccccc1)C1=C[C@H](c2ccccc2)C[C@H](OCCCCO)O1,–,"inconclusive: 9.2 µM [cytotoxic, partial curve]"
CC(C)(CNC(=O)c1cccc(S(=O)(=O)N2CCCCC2)c1)N1CCOCC1,–,"inconclusive: 18.4 µM [cytotoxic, partial curve, poor fit]"
CN(CCC#N)C(=O)COC(=O)c1ccccc1C(=O)c1ccc(Cl)c([N+](=O)[O-])c1,inactive: 18.3%,–
Cc1nn(-c2ccc(Cl)c(Cl)c2Cl)c(=O)c2ccccc12,–,"inconclusive: 16.4 µM [cytotoxic, single point]"
Cc1ccc(Cn2c(=N)c(C(=O)NC3CCCCC3)cc3c(=O)n4ccccc4nc32)cc1,inactive: 9.95%,–
Cc1ccc2[nH]cc(C(c3ccccc3)c3ccc(C)s3)c2c1 (stereo not drawn),–,"inconclusive: 29.1 µM [cytotoxic, single point]"
Cn1c(N)c(C(=O)COC(=O)c2ccc(-c3ccccc3)cc2)c(=O)n(C)c1=O,inactive: -0.877%,–
NC(=O)CCCn1c(C(=O)c2cc(Cl)c(N)c(Cl)c2)c2ccc(C(F)(F)F)cc2[n+]1[O-],inactive: 10%,–
C=CCOC(=O)C1=C(C)NC(=O)NC1c1cn(-c2ccccc2)nc1-c1cccs1 (stereo not drawn),–,active: 20.6 µM
O=C(NCCCc1nc2ccccc2n1Cc1ccccc1Cl)c1ccco1,–,"inconclusive: 23.1 µM [cytotoxic, single point]"
CCCCn1c(CCC(=O)O)ccc1-c1cccs1,–,"inconclusive: 29.1 µM [rising, single point]"
COC(=O)C1=C2SCC(=O)N2C(N)=C(C#N)C1,–,"inconclusive: 23.1 µM [rising, single point]"
COc1ccc(CN2C(=O)c3ccccc3C(/C=N\OCc3ccc(F)cc3)C2=O)cc1 (stereo not drawn),–,active: 16.4 µM
CC(C)C(=O)Nc1ccc(C(=O)N/N=C/c2cc(Br)cc(Br)c2O)cc1,–,"inconclusive: 29.1 µM [cytotoxic, single point]"
COCCN1CCn2c(nc3cc(NC(=O)Cn4nc(C)c5ccccc5c4=O)ccc32)C1,–,"inconclusive: 6.51 µM [rising, partial curve, poor fit]"
CC12CCC(=O)C=C1CCC1C2C(O)CC2(C)C(c3csc(N)n3)CCC12 (stereo not drawn),–,"inconclusive: 16.4 µM [cytotoxic, single point]"

# As a working copy, some entries already given.
SMILES,"activity change, negative = cytotoxicity",Potency
Cc1nn(-c2ccc(Cl)c(Cl)c2Cl)c(=O)c2ccccc12,–,"inconclusive: 16.4 µM [cytotoxic, single point]"
Cc1ccc(Cn2c(=N)c(C(=O)NC3CCCCC3)cc3c(=O)n4ccccc4nc32)cc1,inactive: 9.95%,–
Cc1ccc2[nH]cc(C(c3ccccc3)c3ccc(C)s3)c2c1 (stereo not drawn),–,"inconclusive: 29.1 µM [cytotoxic, single point]"

# Record cards, as listed above. Order of values: activity change, negative = cytotoxicity	Potency
# Cc1ccc(NC(=O)CC2Nc3cc(C)c(C)cc3NC2=O)c(C)c1 (stereo not drawn) is entered as –	inconclusive: 23.1 µM [rising, partial curve]
# COCCN1CCn2c(nc3cc(NC(=O)Cn4nc(C)c5ccccc5c4=O)ccc32)C1 is entered as –	inconclusive: 6.51 µM [rising, partial curve, poor fit]
